Laboratory results: patent publication US12410245 (UNIVERSITY OF VIRGINIA PATENT FOUNDATION, dated 2025)
No constants are given. Whether binding was seen depends on the method and setting. Some binding calls cover weakened binding; strength is not graded here.

Sequences of proteins named here, by UniProt entry; tags and fusion partners are left off. A change or cut given only in a name is not applied to a line headed by its entry. A line that says so, or that is headed by a name, gives the form on record, which may keep a tag or linker. Residues count along the entry.
UniProt P02769, residues 25-607: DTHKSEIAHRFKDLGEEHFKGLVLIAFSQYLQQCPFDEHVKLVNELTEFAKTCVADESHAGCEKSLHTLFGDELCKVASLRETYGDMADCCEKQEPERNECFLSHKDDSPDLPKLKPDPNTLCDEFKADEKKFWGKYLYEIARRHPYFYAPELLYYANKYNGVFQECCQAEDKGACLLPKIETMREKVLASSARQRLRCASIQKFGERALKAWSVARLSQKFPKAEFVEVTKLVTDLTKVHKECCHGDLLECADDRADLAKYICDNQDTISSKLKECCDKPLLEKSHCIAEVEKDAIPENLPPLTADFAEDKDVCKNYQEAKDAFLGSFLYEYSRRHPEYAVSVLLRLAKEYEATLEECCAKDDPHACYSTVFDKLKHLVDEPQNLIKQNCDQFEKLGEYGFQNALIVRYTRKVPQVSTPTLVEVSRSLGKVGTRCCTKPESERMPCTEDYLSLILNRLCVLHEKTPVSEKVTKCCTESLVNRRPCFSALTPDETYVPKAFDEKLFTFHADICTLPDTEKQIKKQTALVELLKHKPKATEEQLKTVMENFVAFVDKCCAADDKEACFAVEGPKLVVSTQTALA
UniProt P11276, residues 33-2477: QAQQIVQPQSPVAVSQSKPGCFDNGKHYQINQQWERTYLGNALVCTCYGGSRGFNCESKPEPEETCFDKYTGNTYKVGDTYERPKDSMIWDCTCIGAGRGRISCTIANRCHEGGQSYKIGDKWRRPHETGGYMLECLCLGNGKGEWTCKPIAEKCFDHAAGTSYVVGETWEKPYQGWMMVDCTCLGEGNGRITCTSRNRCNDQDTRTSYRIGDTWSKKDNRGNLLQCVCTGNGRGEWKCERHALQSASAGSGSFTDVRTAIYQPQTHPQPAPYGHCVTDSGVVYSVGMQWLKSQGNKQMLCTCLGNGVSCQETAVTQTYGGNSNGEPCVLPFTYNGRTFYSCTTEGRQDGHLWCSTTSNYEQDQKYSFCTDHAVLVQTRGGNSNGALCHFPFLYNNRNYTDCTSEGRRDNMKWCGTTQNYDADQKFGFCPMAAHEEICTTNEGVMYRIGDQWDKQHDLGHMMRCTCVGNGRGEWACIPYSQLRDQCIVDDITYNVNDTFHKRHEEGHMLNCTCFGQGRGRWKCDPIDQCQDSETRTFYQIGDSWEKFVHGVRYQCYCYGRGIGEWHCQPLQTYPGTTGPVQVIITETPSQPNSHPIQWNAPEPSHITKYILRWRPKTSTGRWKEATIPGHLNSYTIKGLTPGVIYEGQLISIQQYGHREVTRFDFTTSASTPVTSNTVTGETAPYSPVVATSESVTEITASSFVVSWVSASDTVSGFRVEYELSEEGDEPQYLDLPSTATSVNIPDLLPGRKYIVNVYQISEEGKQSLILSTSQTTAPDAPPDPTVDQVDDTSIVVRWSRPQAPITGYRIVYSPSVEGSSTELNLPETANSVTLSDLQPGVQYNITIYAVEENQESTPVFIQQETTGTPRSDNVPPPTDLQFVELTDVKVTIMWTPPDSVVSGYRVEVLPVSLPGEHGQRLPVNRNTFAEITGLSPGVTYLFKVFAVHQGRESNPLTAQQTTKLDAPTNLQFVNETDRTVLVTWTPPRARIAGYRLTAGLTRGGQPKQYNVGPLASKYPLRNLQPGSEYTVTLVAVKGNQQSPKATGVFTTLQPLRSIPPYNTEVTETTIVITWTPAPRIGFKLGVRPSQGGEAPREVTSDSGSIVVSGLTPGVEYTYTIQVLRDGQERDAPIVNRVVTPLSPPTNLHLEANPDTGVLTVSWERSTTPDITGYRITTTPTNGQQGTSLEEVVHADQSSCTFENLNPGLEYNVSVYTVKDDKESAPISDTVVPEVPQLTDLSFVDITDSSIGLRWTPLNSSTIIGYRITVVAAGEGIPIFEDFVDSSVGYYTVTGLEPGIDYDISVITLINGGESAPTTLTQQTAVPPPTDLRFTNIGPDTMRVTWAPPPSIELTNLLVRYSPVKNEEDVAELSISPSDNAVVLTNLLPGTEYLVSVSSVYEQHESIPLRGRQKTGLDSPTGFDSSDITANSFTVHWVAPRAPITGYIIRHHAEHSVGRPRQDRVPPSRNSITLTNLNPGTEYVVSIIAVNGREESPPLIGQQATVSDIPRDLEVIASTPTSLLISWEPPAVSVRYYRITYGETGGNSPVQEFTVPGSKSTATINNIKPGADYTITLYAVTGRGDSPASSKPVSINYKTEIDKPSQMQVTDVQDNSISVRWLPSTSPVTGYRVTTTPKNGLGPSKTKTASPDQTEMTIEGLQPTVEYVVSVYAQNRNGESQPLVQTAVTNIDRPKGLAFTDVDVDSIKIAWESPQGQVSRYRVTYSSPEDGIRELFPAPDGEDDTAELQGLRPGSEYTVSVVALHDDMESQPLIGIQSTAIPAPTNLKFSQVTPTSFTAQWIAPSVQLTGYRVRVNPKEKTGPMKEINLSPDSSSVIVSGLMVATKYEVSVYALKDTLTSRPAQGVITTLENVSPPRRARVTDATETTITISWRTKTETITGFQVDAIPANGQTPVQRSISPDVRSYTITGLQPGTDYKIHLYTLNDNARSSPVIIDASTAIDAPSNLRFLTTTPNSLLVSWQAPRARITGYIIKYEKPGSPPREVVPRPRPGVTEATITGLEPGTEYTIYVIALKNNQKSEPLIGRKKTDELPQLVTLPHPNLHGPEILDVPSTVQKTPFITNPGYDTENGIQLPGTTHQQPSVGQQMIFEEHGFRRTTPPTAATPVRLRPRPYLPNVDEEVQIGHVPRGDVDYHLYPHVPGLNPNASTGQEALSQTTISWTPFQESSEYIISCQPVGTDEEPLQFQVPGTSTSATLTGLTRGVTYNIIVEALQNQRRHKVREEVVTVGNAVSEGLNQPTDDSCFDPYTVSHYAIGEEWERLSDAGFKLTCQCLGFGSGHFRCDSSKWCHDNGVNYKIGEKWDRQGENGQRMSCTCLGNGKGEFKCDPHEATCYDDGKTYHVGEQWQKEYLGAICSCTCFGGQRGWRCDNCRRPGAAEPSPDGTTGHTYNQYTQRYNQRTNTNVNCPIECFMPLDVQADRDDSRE
FnIII6-9 (P02751-1, form named): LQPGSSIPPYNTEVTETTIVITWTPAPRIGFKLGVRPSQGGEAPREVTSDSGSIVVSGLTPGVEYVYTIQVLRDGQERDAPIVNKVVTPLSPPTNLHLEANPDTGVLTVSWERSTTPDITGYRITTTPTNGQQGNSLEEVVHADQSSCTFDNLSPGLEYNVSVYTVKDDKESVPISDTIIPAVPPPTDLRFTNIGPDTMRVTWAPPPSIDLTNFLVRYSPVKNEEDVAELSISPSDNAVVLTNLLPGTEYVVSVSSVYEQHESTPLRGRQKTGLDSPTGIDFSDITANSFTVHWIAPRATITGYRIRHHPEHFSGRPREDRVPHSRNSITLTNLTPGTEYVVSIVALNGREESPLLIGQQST

Columns and labels:
[1] = biological target: BSA (bovine) (UniProt P02769); experiment: ELISA of H5 on plates coated with the protein
[2] = biological target: fibrillar fibronectin in mouse tissue (lung sections, postnatal retina) (mouse) (UniProt P11276); experiment: whole mount immunostaining of postnatal mouse retina
[3] = biological target: fibrillar fibronectin in mouse tissue (lung sections, postnatal retina) (mouse) (UniProt P11276); experiment: immunofluorescence on frozen mouse lung tissue sections
[4] = biological target: T1, FnIII6-9 (UniProt P02751-1 1085-1446, limits assumed); experiment: SPR, Fn fragments immobilized
T1 construct: domain: FnIII6-9; also called FnIII9 (FnIII6-9); Fn fragment including the 9th type III repeat

binding [2]: binds
binding [3]: binds
binding [4]: binds
B1: H5 scFv (scFv)
scFv: EVQLLESGGGLVQPGGSLRLSCAASGFTFSSYAMSWVRQAPGKGLEWVSDIYDGGGTNYADSVKGRFTTSRDNSKNTLYLQMNSLRAEDTAVYYCAKTADNFDYWGQGTLVTVSSGGGGSGGGGSGGGGSTDIQMTQSPSSLSASVGDRVTITCRASQSISSYLNWYQQKPGKAPKLLIYAASTLQSGVPSRFSGSGSGTDFTLTISSLQPEDFATYYCQQANSAPTTFGQGTKVEIKRAAA
notes: Soluble scFv from E. coli, purified by Protein-A; also called clone H5; H5 antibody
binding [1]: no binding (tested: 1 µg coating protein)
